# From patent publication US10632095B2 (Zoetis Services LLC, priority 2013, dated 2020)
# At least one structure is not confirmed: it was looked up by name or label, or the drawing left a doubt.
# Test system: LPS-induced lameness
# Assay: LPS-induced swine synovitis model
# Type: in vivo
# Conditions: validation study, 0.2 mg/kg, IM
smiles,measurement,value
Cc1cnc(NC(=O)C2=C(O)c3ccccc3S(=O)(=O)N2C)s1 [Meloxicam],reduction of LPS-induced lameness,effective at reducing LPS-induced lameness
